Values from PubChem BioAssay AID1259308 (NCATS, 2017).

Aim: 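Knock-downs that increase output of a recombinant reporter protein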 (primary screen)
System: human HEK293 embryonic kidney cells stably expressing firefly luciferase (HEK-CMV-Luc2-Hygro)
Knock-down reagent: single siRNA against human genes, 0.8 pmol siRNA per well
Timing: 72 h
Measured: 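Reporter luminescence and viable-cell signal on separate replicate plates, given as percent of non-targeting control and median/MAD z-scores, plus per-cell luciferase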
Reading the numbers: total luciferase, z-score and total luciferase, % of control: higher = more reporter protein produced; luciferase per cell, z-score: higher = more reporter output per viable cell; viable cells, % of control: higher = more viable cells
Rule for the call: 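Active when the median/MAD z-score for overall luciferase is greater than 3; a gene was taken forward for validation with new siRNAs if at least two of its three siRNAs passed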
Calls: active = raised luciferase; inactive = no rise
In all, the deposit lists about 59,000 reagents; this is a part drawn at random. About 1,510 of them (2.6%) count as active. 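Calls use total luciferase alone and ignore viability, so some active siRNAs may act by altering cell number.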 The numbers tell different reagents against one gene apart.

no.	gene	reagent no.	total luciferase, z-score	total luciferase, % of control	luciferase per cell, z-score	viable cells, % of control	outcome
1	FYCO1 (FYVE and coiled-coil domain autophagy adaptor 1)	1	0.767	97.1	0.726	89.7	inactive
2	FYCO1 (FYVE and coiled-coil domain autophagy adaptor 1)	2	1.41	110	1.16	90.4	inactive
3	FYCO1 (FYVE and coiled-coil domain autophagy adaptor 1)	3	0.253	86.9	1.1	72.7	inactive
4	FAM185BP (family with sequence similarity 185 member B, pseudogene)	1	0.107	84	0.234	88.3	inactive
5	FAM185BP (family with sequence similarity 185 member B, pseudogene)	2	1.63	114	2.08	73.9	inactive
6	FAM185BP (family with sequence similarity 185 member B, pseudogene)	3	1.51	112	1.2	91.2	inactive
7	PLCD3 (phospholipase C delta 3)	1	-1.12	59.7	-0.916	84.9	inactive
8	PLCD3 (phospholipase C delta 3)	2	-2.71	27.9	-1.95	52.1	inactive
9	PLCD3 (phospholipase C delta 3)	3	-1.2	58.1	-0.862	81.4	inactive
10	DUT (deoxyuridine triphosphatase)	1	0.133	84.5	0.283	87.7	inactive
11	DUT (deoxyuridine triphosphatase)	2	0.115	84.2	-0.575	109	inactive
12	DUT (deoxyuridine triphosphatase)	3	-1.43	53.4	0.412	53.6	inactive
13	RPL15P17 (ribosomal protein L15 pseudogene 17)	1	2.08	123	1.86	84.4	inactive
14	RPL15P17 (ribosomal protein L15 pseudogene 17)	2	-0.231	77.3	-0.601	101	inactive
15	RPL15P17 (ribosomal protein L15 pseudogene 17)	3	1.46	111	1.69	79.5	inactive
16	TMEM235 (transmembrane protein 235)	1	0.116	84.2	1.22	68.2	inactive
17	TMEM235 (transmembrane protein 235)	2	-0.0472	80.9	0.0136	90.1	inactive
18	TMEM235 (transmembrane protein 235)	3	0.309	88	0.0999	95.8	inactive
19	CNST (consortin, connexin sorting protein)	1	-0.531	71.3	-0.206	84.1	inactive
20	CNST (consortin, connexin sorting protein)	2	-0.618	69.6	-0.264	83.4	inactive
21	CNST (consortin, connexin sorting protein)	3	1.14	105	1.23	84.6	inactive
22	KRT82 (keratin 82)	1	3.57	153	3.02	77.1	active
23	KRT82 (keratin 82)	2	-1.92	43.6	-1.91	80.6	inactive
24	KRT82 (keratin 82)	3	-0.549	71	-1.37	114	inactive
25	NUBP1 (NUBP iron-sulfur cluster assembly factor 1, cytosolic)	1	-0.387	74.2	-0.821	103	inactive
26	NUBP1 (NUBP iron-sulfur cluster assembly factor 1, cytosolic)	2	-0.464	72.7	-0.514	93	inactive
27	NUBP1 (NUBP iron-sulfur cluster assembly factor 1, cytosolic)	3	0.11	84.1	-0.59	110	inactive
28	LIPJ (lipase family member J)	1	0.904	99.9	-0.211	118	inactive
29	LIPJ (lipase family member J)	2	-0.451	72.9	-0.237	86.7	inactive
30	LIPJ (lipase family member J)	3	0.463	91.1	-0.0601	103	inactive
31	GRAMD1A (GRAM domain containing 1A)	1	-0.385	74.2	-0.915	106	inactive
32	GRAMD1A (GRAM domain containing 1A)	2	0.875	99.3	0.452	98.5	inactive
33	GRAMD1A (GRAM domain containing 1A)	3	-0.1	79.9	-0.575	104	inactive
34	KIAA0408	1	1.88	119	1.59	87.7	inactive
35	KIAA0408	2	0.0266	82.4	-0.274	99	inactive
36	KIAA0408	3	0.463	91.1	-0.325	111	inactive
37	HACD1 (3-hydroxyacyl-CoA dehydratase 1)	1	0.718	96.2	0.163	103	inactive
38	HACD1 (3-hydroxyacyl-CoA dehydratase 1)	2	-0.911	63.8	-1.54	107	inactive
39	HACD1 (3-hydroxyacyl-CoA dehydratase 1)	3	1.33	108	1.06	91.5	inactive
40	BNC1 (basonuclin zinc finger protein 1)	1	-1.97	42.6	-2.42	90.2	inactive
41	BNC1 (basonuclin zinc finger protein 1)	2	-1.83	45.4	-2.68	103	inactive
42	BNC1 (basonuclin zinc finger protein 1)	3	0.14	84.7	-0.445	106	inactive
43	ABCB5 (ATP binding cassette subfamily B member 5)	1	0.155	85	0.102	92.4	inactive
44	ABCB5 (ATP binding cassette subfamily B member 5)	2	-0.864	64.7	-1.43	105	inactive
45	ABCB5 (ATP binding cassette subfamily B member 5)	3	1.31	108	1.01	92.4	inactive
46	HMCN1 (hemicentin 1)	1	0.0895	83.7	0.00269	93.4	inactive
47	HMCN1 (hemicentin 1)	2	-0.777	66.4	-0.751	90.5	inactive
48	HMCN1 (hemicentin 1)	3	-0.673	68.5	0.255	71.6	inactive
49	C10orf53 (chromosome 10 open reading frame 53)	1	0.201	85.9	0.601	81.9	inactive
50	C10orf53 (chromosome 10 open reading frame 53)	2	0.158	85	1.13	70.6	inactive
51	C10orf53 (chromosome 10 open reading frame 53)	3	0.197	85.8	-0.507	110	inactive
52	TNFAIP1 (TNF alpha induced protein 1)	1	-0.885	64.3	-0.841	89.7	inactive
53	TNFAIP1 (TNF alpha induced protein 1)	2	1.28	107	1.53	80.2	inactive
54	TNFAIP1 (TNF alpha induced protein 1)	3	-1.72	47.6	-1.13	71.6	inactive
55	NRDC (nardilysin convertase)	1	0.317	88.2	0.067	96.8	inactive
56	NRDC (nardilysin convertase)	2	-0.439	73.2	-0.768	100	inactive
57	NRDC (nardilysin convertase)	3	-1.81	45.9	-1.49	75.9	inactive
58	RNF32 (ring finger protein 32)	1	0.295	87.8	0.145	94.4	inactive
59	RNF32 (ring finger protein 32)	2	-0.466	72.6	-0.221	86	inactive
60	RNF32 (ring finger protein 32)	3	0.583	93.5	0.317	96.1	inactive
61	OSTM1 (osteoclastogenesis associated transmembrane protein 1)	1	0.391	89.7	-0.281	108	inactive
62	OSTM1 (osteoclastogenesis associated transmembrane protein 1)	2	0.0144	82.2	-0.446	103	inactive
63	OSTM1 (osteoclastogenesis associated transmembrane protein 1)	3	-0.106	79.8	0.18	85	inactive
64	PFN1P6 (profilin 1 pseudogene 6)	1	0.578	93.4	2.02	61.4	inactive
65	PFN1P6 (profilin 1 pseudogene 6)	2	-0.738	67.2	-0.744	91.3	inactive
66	PFN1P6 (profilin 1 pseudogene 6)	3	0.255	87	-0.132	101	inactive
67	NKAP (NFKB activating protein)	1	-0.421	73.5	-0.541	94.7	inactive
68	NKAP (NFKB activating protein)	2	1.35	109	2.57	61.9	inactive
69	NKAP (NFKB activating protein)	3	-0.44	73.1	-0.887	103	inactive
70	SEMA6C (semaphorin 6C)	1	-0.0856	80.2	0.486	78.8	inactive
71	SEMA6C (semaphorin 6C)	2	-0.196	78	-0.252	93.1	inactive
72	SEMA6C (semaphorin 6C)	3	-0.434	73.3	0.238	76.9	inactive
73	CABS1 (calcium binding protein, spermatid associated 1)	1	-0.287	76.2	-0.637	101	inactive
74	CABS1 (calcium binding protein, spermatid associated 1)	2	-1.08	60.5	-1.16	91.7	inactive
75	CABS1 (calcium binding protein, spermatid associated 1)	3	-0.0816	80.3	-0.65	106	inactive
